Laboratory results from patent US20220062165A1, “COMPOSITIONS AND METHODS FOR INTRANASAL DELIVERY OF PREGNENOLONE” (M et P Pharma AG, priority 2018, published 2022).
At least one compound was matched to its structure with a doubt left.

Test system: extracellular acetylcholine levels in the amygdala
Test: In vivo microdialysis after intranasal administration in both nostrils, amygdala
Set-up: species or system rat
Conditions: for Difference in extracellular release of acetylcholine in amygdala, post hoc Dunnett 2-sided, M: PREG 11.2 mg/mL vs vehicle, acetylcholine as % of baseline (FIG. 3)
Description: Acetylcholine concentration values are presented as % of baseline with six baseline samples taken as 100 (mean+SE). Pregnenolone was administrated intranasally at a volume of 5 μl each in both nostrils, at the 0 minute time point. Time is presented in the x-axis and mean and standard error of acetylcholine concentration (expressed as % of baseline) are presented in the y-axis. Filled black circles represent the vehicle, unfilled white circles represent the 5.6 mg/mL pregnenolone dose and the triangle represents the 11.2 mg/mL pregnenolone dose.
The semipermeable membrane allows molecules smaller than 6 KDa to pass through. The length of the active membrane is 2 mm for the frontal cortex and amygdala, and 4 mm for the hippocampus.
Microdialysis. Prior the microdialysis process, the animals were anesthetized with Urethane intraperitoneal injection. (1.25 gram/kilogram, Sigma Aldrich). To allow fluid supply (perfusion liquid) (Ringer's solution 0.2 milliliter every 20 minutes) without physical contact with the animal, a catheter was placed into the intraperitoneal cavity. The animal was placed in an acrylic box (45×25×22 centimeter), and the body temperature was monitored and held stable at 36.5±0.5 degrees Celsius by atemperature controller (CMA/150) and a heating pad. The inlet tubes were connected to a microinfusion pump (CMA/100) and were perfused with Ringer's solution containing Neostigmine (10 micromoles) with a flow rate of 2 microliter/minute (perfusate). The fluid rate of the fluid flowing through the probe was thus controlled by the syringe pump. Neostigmine is a cholinesterase inhibitor which was perfused in order to obtain levels of acetylcholine easily detectable with the HPLC method currently available (sensitivity limits 50-100 femtomole/injection). The inhibition of cholinesterase caused continuous occupation of muscarinic presynaptic inhibitory receptors, thereby maintaining an inhibitory tone which controlled acetylcholine release from the cholinergic terminal. de Boer, P. et al., “The effect of acetylcholinesterase inhibition on the release of acetylcholine from the striatum in vivo: interaction with autoreceptor responses,” Neurosci. Lett., 116, 357-360 (1990). The perfusate was designed to have a lower concentration compared to the area surrounding the probe, which ensured that the flow of the flux went into the probe and not the other way around. Once the fluid flowed through the membrane, the perfusion fluid, now dialysate, should reflect the concentration of the neurotransmitter of interest in the extracellular fluid in that area as described in Kho, C. M. et al., “A Review on Microdialysis Calibration Methods: the Theory and Current Related Efforts,” Mol. Neurobiol., 54, 3506-3527 (2017). After a 2 hour stabilization period, baseline samples, each corresponding to a time window of 10 minutes, were collected. After the sixth baseline sample, 5 microliter (μL) of 11.2 milligram/milliliter (mg/mL) pregnenolone (PREG) in one nostril (ipsilateral) and 5 μL of vehicle lipid gel in the opposite nostril (contralateral) were intranasally administered. After the treatment, another 10 samples, each also corresponding to a time window of 10 minutes, were collected. The volume collected for each sample was 20 μL. In order to determine changes in recovery (relation between concentration of acetylcholine in the probe surrounding area and that in the collected dialysate) caused by external factors that may decrease the efficiency of the probe, 10 μL of internal standard was present in each vial (25 μL of ethylhomocholine stock solution in 100 mL of NaOH diluent).
Drugs. Pregnenolone (PREG) (Bayer HealthCare Pharmaceuticals) mixed in a lipid-based gel formulation was used. The composition of the gel formulation containing 11.2 mg/mL pregnenolone was 1.12% micronized pregnenolone, 90.88% castor oil, 4.0% oleoyl polyoxylglycerides, and 4.0% colloidal silicon dioxide. […]

CC(=O)[C@H]1CC[C@H]2[C@@H]3CC=C4C[C@@H](O)CC[C@]4(C)[C@H]3CC[C@]12C [pregnenolone]
Difference in extracellular release of acetylcholine in amygdala, post hoc Dunnett 2-sided, M (40 min after treatment): 202.78, SE = 80.27
Difference in extracellular release of acetylcholine in amygdala, post hoc Dunnett 2-sided, M (50 min after treatment): 221.996, SE = 75.58
Difference in extracellular release of acetylcholine in amygdala, post hoc Dunnett 2-sided, M (60 min after treatment): 196.47, SE = 59.01
Difference in extracellular release of acetylcholine in amygdala, post hoc Dunnett 2-sided, M (70 min after treatment): 125.21, SE = 32.22
Difference in extracellular release of acetylcholine in amygdala, post hoc Dunnett 2-sided, M (80 min after treatment): 169.62, SE = 65.94
Difference in extracellular release of acetylcholine in amygdala, post hoc Dunnett 2-sided, M (90 min after treatment): 141.44, SE = 47.54
post hoc Dunnett 2-sided, 11.2 mg/mL vs vehicle, M (amygdala acetylcholine) (overall, all time points, acetylcholine expressed as % of baseline (FIG. 3)): 101.51 and SE=37.42
